Laboratory results: US6368809B1, “E2F ubiquitination domain, and assays for inhibitors and enhancers of E2F ubiquitination” (Prolifix Limited, priority 1996, dated 2002)

Test system: C33A cells
Test: Pulse-chase ([35S]-methionine-cysteine) protein half-life in transfected C33A cells
Assay type: cell-based, human
Settings: immunoprecipitation with 12CA5

Row | Substance | half-life, wild-type E2F-4 versus ΔE2F-4 [h]
1 | ΔE2F-4: carboxy-terminal deletion mutant of E2F-4 encoding amino acids 1-301, lacking the p107 interaction surface | 18
2 | E2F-4: human E2F-4 transcription factor, HA-tagged, expressed from pRc-HA-E2F-4 | 2
